Assay results: patent publication US20200224207

Experiments:
Assay in all cases: activity assay
Exonuclease I = target: T1, Exonuclease I (UniProt P04995); conditions: exonuclease I dose-dependently promotes joining of DCW1-10 by RecA and exonuclease III, 42 C; indirect assay; purified recombinant protein
T1 sequence (looked up, limits assumed): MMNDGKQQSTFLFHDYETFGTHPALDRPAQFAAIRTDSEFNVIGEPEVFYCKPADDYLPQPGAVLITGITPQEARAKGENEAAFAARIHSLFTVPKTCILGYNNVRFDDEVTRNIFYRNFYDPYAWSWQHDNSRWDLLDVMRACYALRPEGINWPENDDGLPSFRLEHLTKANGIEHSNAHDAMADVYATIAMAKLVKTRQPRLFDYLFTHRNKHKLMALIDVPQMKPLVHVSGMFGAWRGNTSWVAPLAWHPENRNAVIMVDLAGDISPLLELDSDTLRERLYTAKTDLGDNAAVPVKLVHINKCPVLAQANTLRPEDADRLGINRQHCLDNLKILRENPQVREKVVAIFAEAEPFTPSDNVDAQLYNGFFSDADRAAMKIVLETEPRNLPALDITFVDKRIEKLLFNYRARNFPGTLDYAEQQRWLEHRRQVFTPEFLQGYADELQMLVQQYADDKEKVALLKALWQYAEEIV

Exonuclease III = target: T2, Exonuclease III (UniProt P09030); conditions: exonuclease III 80-160 mU/uL gives 7-fragment joined body in 15 min, 20 mU/uL almost none; with RecA, 42 C; indirect assay; purified recombinant protein
T2 sequence (looked up, limits assumed): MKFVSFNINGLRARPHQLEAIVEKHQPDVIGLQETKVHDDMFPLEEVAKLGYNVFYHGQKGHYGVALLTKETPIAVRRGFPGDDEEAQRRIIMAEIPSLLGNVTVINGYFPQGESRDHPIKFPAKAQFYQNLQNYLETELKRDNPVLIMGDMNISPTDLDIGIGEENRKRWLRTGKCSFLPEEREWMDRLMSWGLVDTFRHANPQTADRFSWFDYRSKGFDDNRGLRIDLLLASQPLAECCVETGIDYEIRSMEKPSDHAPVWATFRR

[1] = target: RecA F203W mutant (Escherichia coli) (UniProt P0A7G6); conditions: joining of DCW1-25 with exonuclease III, higher joining efficiency than wild-type RecA; 1 mM Mg acetate, 100 uM ATP, 42 C; functional assay; purified recombinant protein
UvsX (Bacteriophage T4) = UvsX (Bacteriophage T4) (UniProt P04529); conditions: 1 or 3 uM UvsX, exonuclease III 80 mU/uL and exonuclease I, 1 mM Mg acetate, 42 C; 10-fragment joined body as with RecA; promoted by UvsY (Example 25); purified recombinant protein
[2] = target: RecA wild-type (Escherichia coli) (UniProt P0A7G6); conditions: control; 10-fragment joining, exonuclease III 80 mU/uL and exonuclease I, 42 C; functional assay; purified recombinant protein

Row | Sequence | activity on this sequence (Exonuclease I) | activity on this sequence (Exonuclease III) | activity on this sequence [1] | activity on this sequence (UvsX (Bacteriophage T4)) | activity on this sequence [2]
1 | TTCTAAAACCGTGACTGCGGATATCCCGATTGTGGGGGATGCTCGCCAGGTCCTCGAACAAATGCTTGAACTCTTGTCGCAAGAATCCGCCCATCAACCACTGGATGAGATCCGCGACTGGTGGCAGCAAATTGAACAGTGGCGCGCTCGTCAGTGCCTGAAATATGACACTCACAGTGAAAAGATTAAACCGCAGGCGGTGATCGAGACTCTTTGGCGGTTGACGAAGGGAGACGCTTACGTGACGTCCGATGTCGGGCAGCACCAGATGTTTGCTGCACTTTATTATCCATTCGACAAACCGCGTCGCTGGATCAATTCCGGTGGCCTCGGCACGATGGGTTTTGGTTTACCTGCGGCACTGGGCGTCAAAATGGCGTTGCCAGAAGAAACCGTGGTTTGCGTCACTGGCGACGGCAGTATTCAGATGAACATCCAGGAACTGTCTACCGCGTTGCAATACGAGTTGCCCGTACTGGTGGTGAATCTCAATAACCGCTATCTGGGGATGGTGAAGCAGTGGCAGGACATGATCTATTCCGGCCGTCATTCACAATCTTATATGCAATCGCTACCCGATTTCGTCCGTCT (double strand) [DCW1 (representative of DCW1-DCW7/10/25/49 fragment set)] | active | active | active | – | –
2 | ATATCATTGGCGTGGGCAGCTGCCCGTCGCGTGGTATGGATAAAGGCGGGGTGAACGACCTCGAATCCGTGGTCAAGTGCGTACAACGCGCCATTGACCAGGCAGAATTGATGGCAGATTGTCAGATCTCTTCGGTATATCTGGCGCTTTCTGGTAAGCACATCAGCTGCCAGAATGAAATTGGTATGGTGCCTATTTCTGAAGAAGAAGTGACGCAAGAAGATGTGGAAAACGTCGTCCATACCGCGAAATCGGTGCGTGTGCGCGATGAGCATCGTGTGCTGCATGTGATCCCGCAAGAGTATGCGATTGACTATCAGGAAGGGATCAAGAATCCGGTAGGACTTTCGGGCGTGCGGATGCAGGCAAAAGTGCACCTGATCACATGTCACAACGATATGGCGAAAAACATCGTCAAAGCGGTTGAACGTTGTGGGCTGAAAGTTGACCAACTGATATTTGCCGGACTGGCATCAAGTTATTCGGTATTGACGGAAGATGAACGTGAACTGGGTGTCTGCGTCGTCGATATCGGTGGTGGTACAATGGATATCGCCGTTTATACCGGTGGGGCATTGCGCCACACTAAGG (double strand) [DCW34 (representative of DCW34-DCW43 set)] | – | – | – | active | active

The exact form of at least one protein or probe is not confirmed. For some assays here: Tags and fusion partners may be left off the protein sequences shown.
